Each structure is given as a SMILES string. Counter-ions that a name gives are not always drawn.

Series [1] in a line: Corrosion testing on J-55 steel coupons. As to conditions: Table 9: J-55, 70° C., 6 hours; additives None.
A short description of series [2]: Wormholing Experiment #1 (matrix acidizing core flood). To be noted: 180° F.
Where [3] appears, read: Buijse and Glasbergen fit, Indiana limestone.

In series [1], `Cl` [7.5% HC1, hydrochloric acid] had a Mils/yr of 3550.3032 Mils/yr and a Mm/year of 90.178 Mm/year.
With `Cl` [15% HCl, hydrochloric acid], the “Optimal Interstitial Velocity” value in series [2] (setting [3]) worked out at 1.97 cm/min. The “Optimal Pore Volume to Breakthrough” value in series [2] (setting [3]) is on record as 0.46. Also, the “Pore Volume to Breakthrough” value was found to be 0.60 in series [2] (core IC1, injection 8 ml/min, interstitial velocity 4.53 cm/min); 0.52 in series [2] (core IC2, injection 10 ml/min, interstitial velocity 6.39 cm/min); 0.60 in series [2] (core IC3, injection 7 ml/min, interstitial velocity 4.97 cm/min); 0.51 in series [2] (core IC5, injection 5 ml/min, interstitial velocity 3.47 cm/min); 0.47 in series [2] (core IC6, injection 3 ml/min, interstitial velocity 2.10 cm/min); 0.64 in series [2] (core IC16, injection 2 ml/min, interstitial velocity 1.56 cm/min). The “Pore Volume to Breakthrough” value in series [2] (core IC18, injection 0.8 ml/min, interstitial velocity 0.62 cm/min) came to 2.93.

The values are drawn from patent publication US11795381B2, “Using synthetic acid compositions as alternatives to conventional acids in the oil and gas industry” (priority 2016, dated 2023).
